PMC8253596
No constants are given. Whether binding was seen depends on the method and setting. Tags and fused reporters may be left off the sequences shown.

Molecular target: RDV major outer capsid protein P8, bait fusion from pGBKT7-P8 (Rice dwarf virus)
Experiment: two-hybrid; Matchmaker Gold Yeast Two-hybrid system; prey in pGADT7, bait in pGBKT7, co-transformed into yeast AH109; growth and colour on SD/-Ade-His-Leu-Trp/X-alpha-Gal

B1: N. cincticeps Rab5, prey fusion from pGADT7-Rab5 (protein, UniProt A0A8F5HV83 1-214)
chain: MANRGGAQRPNGTPQGKICQFKLVLLGESAVGKSSLVLRFVKGQFHEYQESTIGAAFLTQTVCLDDMTVKFEIWDTAGQERYHSLAPMYYRGAQAAIVVYDITNPDTFGRAKTWVKELQRQASPNIVIALAGNKADLANKRSVEFDEAQAYAHENGLLFMETSAKTAMNVNDIFLAIAKKLPKNEQAGGGGSSGQGRRLVESEATTKAPGSCCK
binding: no binding
